Some of the results follow. Further columns of the screen follow, without active or inactive calls. Compounds called inactive in the main read-out are mostly missing here. Potencies come from curve fits of mixed quality, noted in brackets.
Test: qHTS Assay for Lipid Storage Modulators in Drosophila S3 Cells;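 for cell number change: cells counted by Cell Tracker Red CMTPX staining in the red channel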
Details: BODIPY lipid droplet fluorescence, 18-24 h; for cell number change: measured here: cell count max response, cells fed with added oleic acid
Summary of the method: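 Drosophila S3 cells got compounds at several concentrations plus oleic acid (400 uM solution). Laser-scanning cytometry with 488 nm excitation read lipid droplets at 500-530 nm and cells at 575-640 nm. Percent activity was relative to 20 uM Triacsin C.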

[1] = measured here: cell number channel AC50, cells fed with added oleic acid
[2] = measured here: lipid fluorescence (Fed channel) AC50, cells fed with added oleic acid

SMILES | AC50 [1] | AC50 [2] | cell number change [%]
O=C1NC(=O)[C@]2(Cc3ccccc3N3CCN(c4ccccc4)CC32)C(=O)N1Cc1ccccc1 (stereo partly drawn) | 0.146 µM [rising, single point] | 29.1 µM [falling, partial curve] | –
Fc1ccc(CNC2CN3CCC2CC3)cc1 (stereo not drawn) | – | – | -8.55
CC1(C)NC(=O)N(c2ccc([N+](=O)[O-])c(C(F)(F)F)c2)C1=O | 8.2 µM [rising, partial curve, poor fit] | – | –
CC12CCCCC1=[N+]([O-])CN2O (stereo not drawn) | 6.51 µM [falling, single point] | 5.8 µM [falling, single point] | -2.54
OC1C2CN3CN(C2)CC1(c1ccccc1)C3 (stereo not drawn) | 0.0058 µM [falling, full curve] | – | -29.9
CCCCCn1c(=O)c(C(=O)Nc2ccccc2Cl)c(O)c2ccccc21 | – | 5.17 µM [rising, partial curve] | 17.2
COc1ccc(C(=O)C2(C)N(O)C(C)C(c3cccs3)=[N+]2[O-])cc1 (stereo not drawn) | 0.0058 µM [falling, full curve, poor fit] | 5.8 µM [falling, full curve] | -38.1
COc1ccc2c(c1)NP(=S)(Oc1ccccc1)N2 (stereo not drawn) | – | 2.06 µM [rising, full curve, poor fit] | 9.95
CCOC(=O)C1(CCc2ccccc2)CCN(Cc2cccc3c2OCO3)CC1 | 29.1 µM [falling, single point] | 29.1 µM [falling, single point] | -53.8
COC(=O)C1=C(c2ccc(OC)c(OC)c2)C[C@@H]2CC[C@H]1N2C(=O)NCc1ccco1 | – | 1.16 µM [rising, partial curve] | 15.7
O=C(CCCC1=NS(=O)(=O)c2ccccc2N1)N1CCC2(CC1)OCCO2 | 2.59 µM [falling, single point] | – | -19.2
COC(=O)C1=C(c2ccc(-c3ccccc3)c(F)c2)C[C@@H]2CC[C@H]1N2C(=O)N1CCC(C)CC1 | 18.4 µM [falling, single point] | 0.00517 µM [rising, full curve, poor fit] | -36.3
O=C(C1CC(c2ccc(F)cc2)=NO1)N1CCC2(CC1)OCCO2 (stereo not drawn) | – | – | -22.1
CC(C)(C)c1nc(N2CCN(C(=O)c3ccco3)CC2)c2nnn(Cc3ccccc3Cl)c2n1 | – | 29.1 µM [falling, single point] | -28.1
O=C1NC(=S)N(c2ccccc2F)C(=O)/C1=C\c1cccs1 | 4.61 µM [falling, full curve, poor fit] | 32.6 µM [falling, single point] | -30
CCOP(=O)(Cc1cc(C(=O)CC)c(C)o1)OCC | 0.92 µM [falling, full curve, poor fit] | 1.64 µM [falling, partial curve] | 9.82
COCCNC(=O)c1c(NC(=O)c2ccc(Br)o2)n(Cc2ccccc2)c2nc3ccccc3nc12 | 3.66 µM [rising, partial curve] | 0.517 µM [rising, partial curve, poor fit] | 13.7
CC1=C2C(=O)C3C(CC=C4CC(OC5OC(O)C(O)C(O)C5CO)CCC43C)C2CCC12OC1CC(C)CNC1C2C (stereo not drawn) | 2.91 µM [falling, full curve] | 13 µM [falling, partial curve] | -36.2
Clc1ccc(CN2CCNCC2)cc1 | 32.6 µM [rising, single point] | – | 51
N[C@@H](Cc1c[nH]c2ccccc12)c1nnc(SCc2ccc(Cl)cc2)o1 | – | 0.461 µM [rising, single point] | -20.2

SMILES | AC50 [1] | AC50 [2] | cell number change [%]
Cn1c(=O)oc2cc(S(=O)(=O)NCCC(=O)NCCc3ccccc3)ccc21 | 13 µM [falling, partial curve] | – | –
COc1ccc(Cl)cc1C(=O)C1CCCN(CCO)C1 (stereo not drawn) | – | 0.231 µM [rising, full curve, poor fit] | 3.24
COC(=O)C1=C(c2ccc(F)cc2OCc2ccccc2)C[C@@H]2CC[C@H]1N2C(=O)NC1CCCCC1 | – | 29.1 µM [falling, partial curve, poor fit] | -14
Cn1c(=O)oc2cc(S(=O)(=O)NCCC(=O)NCc3ccccc3Cl)ccc21 | 2.59 µM [rising, single point] | – | –
COc1ccc(CNCCc2ccc(Cl)cc2)c(OC)c1OC | – | – | 11.8
COC(=O)C1=C(c2cccc(OCc3ccccc3)c2)C[C@@H]2CC[C@H]1N2C(=O)NCCOc1ccccc1Cl | – | 0.326 µM [rising, full curve, poor fit] | 5.46
O=C(NC1CN2CCC1CC2)c1ccc(-c2ccc([N+](=O)[O-])cc2)o1 (stereo not drawn) | – | – | -12.7
C=CCn1c(O)c(C(C)=NCCN2CCCCC2)c(=O)[nH]c1=O | – | 2.31 µM [rising, single point] | 8.52
COC(=O)C1CN(C#N)N(c2ccc(Cl)cc2)C12c1ccccc1-c1ccccc12 (stereo not drawn) | 0.92 µM [falling, full curve] | 2.06 µM [falling, partial curve] | -47.4
CCOC(=O)C1SC2(C(F)(F)C(F)F)CC1(O)c1c(c(OC)c3occc3c1OC)O2 (stereo not drawn) | – | – | -9.56
COC(=O)C1=C(c2ccc(OC)c(OC)c2)C[C@@H]2CC[C@H]1N2C(=O)N1CCC(O)CC1 | 32.6 µM [falling, single point] | 29.1 µM [falling, single point] | -48.7
COC(=O)C1=C(c2cccc(C#N)c2)C[C@@H]2CC[C@H]1N2C(=O)N1CCC(C)CC1 | – | 6.51 µM [rising, single point] | -8.66
Cc1cccc(N2C(=O)NC(=O)/C(=C\c3ccc4c(c3)CCCN4Cc3ccccc3)C2=O)c1 | – | – | 4.55
Cc1cccc(CNCCc2c[nH]c3ccccc23)c1 | 18.4 µM [falling, single point] | – | -44.2
c1ccc2c(CNC3CCCCCC3)c[nH]c2c1 | 29.1 µM [falling, single point] | 29.1 µM [falling, single point] | -34.3
O=C(O)Cn1cc(/C=C2\C(=O)NC(=O)N(Cc3ccco3)C2=O)c2ccccc21 | – | – | 13.3
CCOP(=S)(OCC)Oc1nc(Cl)c(Cl)cc1Cl | 2.06 µM [falling, partial curve] | – | -31.9
CN1CCc2c(c(N3CCCCC3)nc3n[nH]c(N)c23)C1 | – | 25.9 µM [falling, partial curve] | -8.86
CCCCCn1c(=O)c(C(=O)NCc2ccccc2Cl)c(O)c2ccccc21 | – | 6.51 µM [rising, single point] | 10.9
O=C(O)C(O)(c1ccccc1)C1CCCC1 (stereo not drawn) | – | – | -7.94

SMILES | AC50 [1] | AC50 [2] | cell number change [%]
O=C1Nc2ccc(Br)cc2C(c2ccc(Cl)cc2)=NC1O (stereo not drawn) | – | 6.51 µM [rising, single point] | -8.36
COC(=O)C1=C(c2ccc(F)cc2F)C[C@@H]2CC[C@H]1N2C(=O)NCC1CC1 | – | 4.11 µM [rising, single point] | 5.17
Cc1ccc(NC(=O)CCNC(=O)N2C[C@H]3C[C@@H](C2)c2cccc(=O)n2C3)c(C)c1 | – | – | 6.98
CCOc1ccccc1C1SCC(=O)Nc2c1c(=O)[nH]n2C(CC)CC (stereo not drawn) | 16.4 µM [rising, single point] | 16.4 µM [rising, single point] | 43.6
CCN(CC)C(=O)c1ccc(NC(=O)c2cccc(F)c2)cc1 | – | 14.6 µM [falling, partial curve, poor fit] | 12.7
CC(=NCC1CCCO1)c1c(O)n(C2CCCCC2)c(=O)[nH]c1=O (stereo not drawn) | – | 0.82 µM [falling, single point] | –
O=C1CC(=O)N(Cc2ccccc2)C(=S)N1 | – | – | 1.9
COc1ccc(NC2=NCC(C)S2)cc1 (stereo not drawn) | 6.51 µM [falling, single point] | 6.51 µM [falling, single point] | 0.465
O=C(CN1CC=C(c2ccccc2)CC1)Nc1cc(Cl)ccc1Cl | – | 14.6 µM [rising, partial curve, poor fit] | 11.4
CC/C(=N\N1CCCCCC1)c1c(O)n(-c2ccc(C)cc2)c(=O)[nH]c1=O | – | 20.6 µM [falling, single point] | -13.8
NCCc1ccc(S(N)(=O)=O)cc1 | – | 29.1 µM [falling, single point] | -19.4
COc1ccc2c(c1OC)C(=O)O[C@H]2[C@@H]1c2cc3c(cc2CCN1C)OCO3 | 3.66 µM [rising, full curve] | 1.84 µM [rising, full curve] | 37.4
Cc1cc(OCC(=O)N2CCC(C(=O)NCC(C)C)CC2)c2c3c(c(=O)oc2c1)CCCC3 | – | 20.6 µM [rising, single point] | 1.83
CC(=O)Nc1ccc(CC(=O)N2CCN(Cc3ccccc3)CC2)cc1 | – | 0.58 µM [falling, single point] | 8.11
O=C1NC(=O)C(=Cc2ccc(OCCOc3ccc([N+](=O)[O-])cc3)cc2)C(=O)N1 | – | – | 12.6
CCCCn1c(O)c(C=Nc2c(C)n(C)n(-c3ccccc3)c2=O)c(=O)[nH]c1=O | – | – | 1.43
CCCN1CCO[C@@H]2c3cc(O)ccc3OC[C@H]21 | 25.9 µM [falling, single point] | – | -38.3
COc1ccc(C2SCC(=O)Nc3c2c(C)nn3C2CCOC(C)(C)C2)cc1OC (stereo not drawn) | – | 25.9 µM [rising, single point] | –

A different layout for some results above.

| SMILES | AC50 [1] | AC50 [2] | cell number change [%] |
| --- | --- | --- | --- |
| O=C(O)C(O)(c1ccccc1)C1CCCC1 (stereo not drawn) | – | – | -7.94 |
| O=C1Nc2ccc(Br)cc2C(c2ccc(Cl)cc2)=NC1O (stereo not drawn) | – | 6.51 µM [rising, single point] | -8.36 |
| CCOc1ccccc1C1SCC(=O)Nc2c1c(=O)[nH]n2C(CC)CC (stereo not drawn) | 16.4 µM [rising, single point] | 16.4 µM [rising, single point] | 43.6 |
| CCN(CC)C(=O)c1ccc(NC(=O)c2cccc(F)c2)cc1 | – | 14.6 µM [falling, partial curve, poor fit] | 12.7 |
| CC(=NCC1CCCO1)c1c(O)n(C2CCCCC2)c(=O)[nH]c1=O (stereo not drawn) | – | 0.82 µM [falling, single point] | – |
| O=C1CC(=O)N(Cc2ccccc2)C(=S)N1 | – | – | 1.9 |
| O=C(CN1CC=C(c2ccccc2)CC1)Nc1cc(Cl)ccc1Cl | – | 14.6 µM [rising, partial curve, poor fit] | 11.4 |
| CC/C(=N\N1CCCCCC1)c1c(O)n(-c2ccc(C)cc2)c(=O)[nH]c1=O | – | 20.6 µM [falling, single point] | -13.8 |
| NCCc1ccc(S(N)(=O)=O)cc1 | – | 29.1 µM [falling, single point] | -19.4 |
| COc1ccc2c(c1OC)C(=O)O[C@H]2[C@@H]1c2cc3c(cc2CCN1C)OCO3 | 3.66 µM [rising, full curve] | 1.84 µM [rising, full curve] | 37.4 |
| Cc1cc(OCC(=O)N2CCC(C(=O)NCC(C)C)CC2)c2c3c(c(=O)oc2c1)CCCC3 | – | 20.6 µM [rising, single point] | 1.83 |
| CC(=O)Nc1ccc(CC(=O)N2CCN(Cc3ccccc3)CC2)cc1 | – | 0.58 µM [falling, single point] | 8.11 |
| O=C1NC(=O)C(=Cc2ccc(OCCOc3ccc([N+](=O)[O-])cc3)cc2)C(=O)N1 | – | – | 12.6 |
| CCCCn1c(O)c(C=Nc2c(C)n(C)n(-c3ccccc3)c2=O)c(=O)[nH]c1=O | – | – | 1.43 |
| CCCN1CCO[C@@H]2c3cc(O)ccc3OC[C@H]21 | 25.9 µM [falling, single point] | – | -38.3 |
| COc1ccc(C2SCC(=O)Nc3c2c(C)nn3C2CCOC(C)(C)C2)cc1OC (stereo not drawn) | – | 25.9 µM [rising, single point] | – |
